# Reference: PubChem BioAssay AID540276 (National Center for Advancing Translational Sciences (NCATS), 2011)
# Where “and” joins values, the source holds several entries; their conditions need not be identical. Equal values may be shown once. The campaign covered roughly 300,000 compounds. About 5,400 (1.8%) were called active. The shares of active, inactive and inconclusive entries below differ from those in the screen. Calls come from the whole dose curve; tested in HEK293 cells. Where the call is inconclusive, the potency comes from a doubtful curve fit.
# Test: qHTS for inhibitors of binding or entry into cells for Marburg Virus
# Details: Marburg virus pseudotyped entry inhibition, cell reporter; series mostly up to 37.8 µM
# Potency is the fitted concentration of half-maximal effect.
row,Structure (SMILES),Potency
1,COc1cccc(-c2nnc(SCC(=O)Nc3cc(C)on3)n2C)c1,"inconclusive: 0.13 µM [inhibitor, full curve, poor fit]"
2,COc1ccc(CNc2cc(C)ccc2C)c(OC)c1OC,inactive
3,c1ccc(CSc2ncnc3ccccc23)cc1,"inconclusive: 35.5 µM [inhibitor, single point]"
4,Cc1cc(C)n(NC(=S)NC2CCCC2)c(=O)c1C#N,inactive
5,Cc1sc(NC(=O)c2cccc(N3C(=O)CCC3=O)c2)nc1-c1ccccc1,inactive
6,c1csc(CN2CCNCC2)c1,inactive
7,CCn1c(SCC(=O)Nc2cc(OC)ccc2OC)nc2c(c1=O)SCC2,inactive
8,CC(O)CNCCCOc1cccc(Oc2ccccc2)c1 (centres undefined),"inconclusive: 15.8 µM [inhibitor, single point]"
9,Cc1occc1C(=O)N/N=C/c1cccc2ccccc12,"inconclusive: 3.16 µM [activator, single point]"
10,COc1cc(NC(=O)c2cccs2)c(C(=O)OCC(=O)c2cc(C)n(-c3ccccc3)c2C)cc1OC,active: 3.55 µM
11,COC(=O)c1ccc2c(=O)[nH]c(CCl)nc2c1,active: 13 µM
12,O=C(Oc1ccc(Br)cc1C(=O)/C=C/c1ccccc1F)c1ccco1,"inconclusive: 25.1 µM [inhibitor, single point]"
13,CCOc1ccccc1NC(=O)N1c2ccccc2Sc2ccccc21,"inconclusive: 14.1 µM [inhibitor, single point]"
14,Cn1c(=O)c2c(ncn2CC(=O)OCC(=O)Nc2cccc(Cl)c2)n(C)c1=O,inactive
15,COc1ccccc1C(=O)NCCC(=O)N1CCN(c2ccccc2Cl)CC1,inactive
16,Cc1[nH]c(=O)[nH]c1C(=O)CCCCC(=O)O,"inconclusive: 25.1 µM [activator, partial curve, poor fit]"
17,Cc1ccc(N=CNc2ccc(C)cc2C)c(C)c1,inactive
18,COc1ccc(Cn2c(CCC(=O)Nc3ccc(C)cc3)nc3cccnc32)cc1,"inactive and inconclusive: 20.6 µM [inhibitor, partial curve, poor fit]"
19,CCN1CC(CNCc2cn(-c3ccc(OC)cc3)nc2-c2ccccc2Cl)CC1=O (centres undefined),"inconclusive: 11.2 µM [inhibitor, partial curve, poor fit]"
20,CC(=O)Nc1ccc(NC(=O)[C@@H](NC(=O)c2cccc(C)c2)C(C)C)cc1,"inconclusive: 1.41 µM [inhibitor, partial curve, poor fit]"
21,C=CCn1c(O)c(N=NC(=O)CNC(=O)c2ccco2)c2ccccc21,inactive
22,Cc1cc(C(=O)Cn2nnc3ccccc3c2=O)c(C)n1-c1ccccc1F,active: 3.16 µM
23,Cc1ccc(-n2c(-c3cnccn3)n[nH]c2=S)c(Br)c1,"inconclusive: 5.62 µM [inhibitor, single point]"
24,CCCN1CCCC(c2cccc(O)c2)C1 (centres undefined),"inconclusive: 562 nM [inhibitor, full curve] and inconclusive: 5.62 µM [inhibitor, partial curve, poor fit]"
25,C/C=C/c1ccc(Oc2nnnn2-c2ccc(C(=O)O)cc2)c(OC)c1,inactive

# Entries listed so far that contain a furan ring, fused or not, in the order listed:
row,Structure (SMILES),Potency
9,Cc1occc1C(=O)N/N=C/c1cccc2ccccc12,"inconclusive: 3.16 µM [activator, single point]"
12,O=C(Oc1ccc(Br)cc1C(=O)/C=C/c1ccccc1F)c1ccco1,"inconclusive: 25.1 µM [inhibitor, single point]"
21,C=CCn1c(O)c(N=NC(=O)CNC(=O)c2ccco2)c2ccccc21,inactive

# The list continues.

row,Structure (SMILES),Potency
1,COc1ccc(Nc2ncnc3sccc23)c(OC)c1,inactive
2,CCOc1cc(CNC2CCCC2)cc(Cl)c1OCc1ccc(F)cc1,active: 5.8 µM
3,CC(c1ccccc1)C1C(C#N)=C(N)OC2=C1C(=O)CC(C)(C)C2 (centres undefined),inactive
4,CCOC(=O)c1cc(NC(=O)/C=C\C(=O)O)ccc1Cl,"inconclusive: 6.31 µM [inhibitor, partial curve, poor fit]"
5,Cc1c(N=Cc2c(O)n(CCc3ccc(F)cc3)c(=O)[nH]c2=O)c(=O)n(-c2ccccc2)n1C,"inconclusive: 18.3 µM [inhibitor, single point]"
6,CC(C)(C)C1CCc2onc(C(=O)Nc3cnn(Cc4ccc(F)cc4)c3)c2C1 (centres undefined),"inconclusive: 9.2 µM [inhibitor, partial curve]"
7,C/C(=N\NC(=O)c1csc2ccccc12)c1ccc(O)cc1,"inconclusive: 5.62 µM [activator, single point]"
8,CCCCN(Cc1ccccc1)c1ncnc2nc[nH]c12,"inconclusive: 6.51 µM [activator, single point]"
9,NC(=O)C1CCN(C(=O)CSc2nc3c(c(-c4ccccc4)n2)CCCC3)CC1,inactive
10,O=C(COc1ccc(Cl)cc1)NCc1nnc(SCC(=O)c2ccccc2)o1,inactive
11,CCCn1c2ccc(/C(C)=N\O)cc2c2cc(/C(C)=N/O)ccc21,"inconclusive: 35.5 µM [inhibitor, single point]"
12,O=C(c1cnc(Cl)c(Cl)c1)N1CCN(S(=O)(=O)c2ccc3ccccc3c2)CC1,"inconclusive: 35.5 µM [inhibitor, single point]"
13,Cc1cccc(NC(=S)NNC(=O)c2csc(C)c2)c1,"inconclusive: 2 µM [activator, partial curve, poor fit]"
14,CSc1nsc(SCC(=O)Nc2ccccn2)n1,inactive
15,N/C(=N\S(=O)(=O)c1ccc(Cl)cc1)N1CCOCC1,"inconclusive: 5.62 µM [activator, single point]"
16,COC(=O)c1ccc(CN2CCN(CCCc3ccccc3)C(CCO)C2)cc1 (centres undefined),"inconclusive: 25.1 µM [inhibitor, single point]"
17,Cc1noc(C(=O)Nc2ccc(F)c(Cl)c2)c1Cl,inactive
18,CCN(CC)S(=O)(=O)c1ccc(N2CCOCC2)c(NC(=O)c2cnccn2)c1,inactive
19,CC(=O)C1=C(NC(=O)c2ccc(F)cc2)CC2C1C2(C)C (centres undefined),inactive
20,COc1cc2[nH]c(-c3cccc(F)c3)cc(=O)c2cc1OC,"inconclusive: 29.1 µM [inhibitor, single point]"
21,CCOC(=O)CN1C(C(=O)c2ccccc2)=C(OC(=O)C(C)(C)C)c2ccccc2S1(=O)=O,"inconclusive: 35.5 µM [inhibitor, single point]"
22,COc1ccc(/C=N/NC(=O)c2ccc(COc3cccc4cccnc34)cc2)cc1O,"inconclusive: 12.6 µM [inhibitor, single point]"
23,O=C(Nc1ccc2c(c1)OCCO2)C1CCN(S(=O)(=O)c2ccc(Br)s2)CC1,"inconclusive: 35.5 µM [inhibitor, single point]"
24,COc1ccc(CC(=O)Nc2ccc(C(=O)NC(C)(C)C)cc2)cc1,"inconclusive: 5.01 µM [inhibitor, partial curve, poor fit]"
25,Cc1ccc(S(=O)(=O)NNC(=O)c2ccc(O)cc2)cc1,inactive

row,Structure (SMILES),Potency
1,COc1cc(C(=O)NNC(=O)c2cc(=O)[nH]c3ccccc23)cc(OC)c1OC,"inconclusive: 6.31 µM [inhibitor, single point]"
2,COc1cc2c(cc1NC(=O)CSc1ccccn1)oc1ccccc12,"inconclusive: 35.5 µM [inhibitor, single point]"
3,Cc1cccc(OCCCN2CCCCCC2)c1,"inconclusive: 9.2 µM [inhibitor, partial curve, poor fit]"
4,CCOC(=O)c1c(NC(=O)CSc2nnc(CNC(=O)c3ccco3)n2C)sc2c1CCC2,"inconclusive: 6.51 µM [inhibitor, single point]"
5,CC(=O)Nc1ccc(C(=O)NNC(=O)c2cccs2)cc1,inactive
6,O=C(N/N=C/c1ccncc1)c1ccc2c(c1)OCO2,inactive
7,O=C(NCCN1C(=O)S/C(=C\c2ccc(Cl)cc2Cl)C1=O)C1=COCCO1,"inconclusive: 22.4 µM [inhibitor, single point]"
8,Fc1ccc(CNc2ncccn2)cc1,inactive
9,C=CCn1c(=N)c(C(=O)NCCCOC)cc2c(=O)n3cc(C)ccc3nc21,"inconclusive: 35.5 µM [inhibitor, partial curve, poor fit]"
10,COCCCn1c(=N)c(C(=O)NCc2ccco2)cc2c(=O)n3cccc(C)c3nc21,inactive
11,O=C(O)c1ccc(CSc2nc3ccc(N4C(=O)C5C6C=CC(C6)C5C4=O)cc3s2)cc1 (centres undefined),"inconclusive: 12.6 µM [activator, single point]"
12,CCC1(c2ccccc2)NC(=O)N(CC(=O)N(c2ccccc2)C2CCS(=O)(=O)C2)C1=O (centres undefined),"inconclusive: 1.12 µM [activator, full curve, poor fit]"
13,O=C(CSc1nnc(NC2CCCCC2)s1)Nc1ccc(N2CCOCC2)cc1,inactive
14,Cc1cc(OCCNCCO)cc(C)c1Cl,"inconclusive: 14.1 µM [inhibitor, single point]"
15,COc1cc2c(cc1OC)CN(C(=O)c1cc(S(=O)(=O)N3CCCCC3)ccc1Cl)CC2,"inconclusive: 6.31 µM [activator, single point]"
16,COc1ccc(-c2nc3c(c4c2C[C@H](c2ccccc2)OC4)CN(C(=O)c2cc(I)ccc2F)CC3)c(C)c1,inactive
17,CCOc1ccc(C2C(C#N)=C(N)Oc3c2c(=O)oc2ccccc32)cc1 (centres undefined),"inconclusive: 5.01 µM [activator, partial curve]"
18,Cc1ccc2[nH]c(=O)c(CN3CCCCC3)c(-c3ccccc3)c2c1,"inconclusive: 14.1 µM [inhibitor, partial curve, poor fit]"
19,Fc1ccc(CN(C2=NCCN2)c2c(Cl)cccc2Cl)cc1,active: 18.3 µM and active: 8.91 µM
20,COC(=O)c1ccc2c(c1)SC1=C(CCCC1=O)N2,inactive
21,Cc1cc(Br)ccc1NC(=O)C1CCCN(S(=O)(=O)c2cccc3nonc23)C1 (centres undefined),inactive
22,Nc1nnnn1/N=C/C=C/c1ccccc1,inactive
23,CN(C)/C=N/S(=O)(=O)c1ccc(Cl)c(Cl)c1,"inconclusive: 3.16 µM [inhibitor, full curve]"
24,N#CC1=C(N)SC(N)=C(C#N)C1c1c(Cl)cccc1Cl,inactive
